We go through two molecules from BindingDB's records for doi:10.1016/0024-3205(76)90375-1 (1976).

Chains of the proteins cited; added tags and fusions are not shown.
UniProt P32305, whole entry: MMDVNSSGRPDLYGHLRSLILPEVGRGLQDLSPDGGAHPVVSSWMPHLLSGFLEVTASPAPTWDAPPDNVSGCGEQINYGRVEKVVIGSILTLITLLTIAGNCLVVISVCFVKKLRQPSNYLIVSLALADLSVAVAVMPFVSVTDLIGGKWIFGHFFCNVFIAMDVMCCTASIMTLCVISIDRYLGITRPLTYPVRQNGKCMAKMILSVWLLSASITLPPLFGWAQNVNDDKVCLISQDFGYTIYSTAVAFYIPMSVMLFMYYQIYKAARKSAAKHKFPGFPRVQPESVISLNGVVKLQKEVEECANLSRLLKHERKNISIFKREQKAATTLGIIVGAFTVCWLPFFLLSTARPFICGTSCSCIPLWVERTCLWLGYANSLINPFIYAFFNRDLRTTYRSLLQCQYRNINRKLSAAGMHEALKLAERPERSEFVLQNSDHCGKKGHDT

This assay addresses 5-hydroxytryptamine receptor 7 (Rattus norvegicus, UniProt P32305).

The structures appear in SMILES notation. Values joined by “and” are separate entries in the source; they are usually repeats but may differ in a detail not shown here. Equal entries are not always repeated. Some results are limits rather than exact numbers.

A word on the Ki: it is a dissociation constant, usually derived from enzyme kinetics or from competition with a known ligand. Turning to `CN1CC[C@]23c4c5ccc(O)c4O[C@H]2[C@@H](O)C=C[C@H]3[C@H]1C5`, the Ki is above 10 µM.

Regarding `CC(C)NC[C@H](O)COc1cccc2ccccc12` [Propanolol,(+/-)], the inhibition constant (Ki) was 5 µM and 7 µM.
